Assay results: PubChem BioAssay AID1347075 (National Center for Advancing Translational Sciences (NCATS), 2019)
Hit rate of the full screen: of about 400,000 compounds, about 5,500 (1.4%) were called active. The shares of active, inactive and inconclusive entries below differ from those in the screen. Calls come from the whole dose curve; as a rule, active = well fitted cell-killing curve with a large enough effect; inconclusive = small, poorly fitted or top-dose-only effect, or effect the other way; inactive = flat fitted curve, though single readings scatter. Potencies beside an inconclusive call are fits to weak or partial responses and may not hold up.

Assay: qHTS assay for MDR1-selective chemotherapeutics: Primary screen using the parental adenocarcinoma cell KB-3-1; note: nearly all actives have a fitted effect of over 60% in size
Conditions: KB-3-1 viability, CellTiter-Glo ATP luminescence, 72 h; activity change, negative = cytotoxic: at 46.1 µM (top of the series)
Procedure, shortened: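 Multi-concentration cytotoxicity screen in KB-3-1 cells grown in DMEM lacking phenol red with 10% FBS. After 72 h at 37 °C with compound, ATP-dependent luminescence was recorded.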
% is set by controls: 0 for no effect and ±100 for the full control effect; potency is the fitted concentration of half-maximal effect.

**Q.** For `CCCC(=O)OCCNc1cc(Sc2nccn2C)c2nonc2c1[N+](=O)[O-]`, which Potency is on record?
**A.** The Potency was inconclusive: 18.4 µM [cytotoxic, single point].

**Q.** For `Cc1ccc2nc3c(nc2c1)-c1ccccc1C3=O`, which Potency is on record?
**A.** Its Potency is inconclusive: 20.6 µM [cytotoxic, single point].

**Q.** Which Potency does the source give for `Cc1cc([N+](=O)[O-])ccc1NC(=O)c1cc2ccccc2o1` here?
**A.** Its Potency is inconclusive: 9.2 µM [cytotoxic, partial curve, poor fit].

**Q.** Which “activity change, negative = cytotoxic” value does the source give for `O=C(N/N=C/c1ccncc1)c1ccc(NS(=O)(=O)c2cccs2)cc1` here?
**A.** The value was inactive: 10.1%.

**Q.** For `Cc1ccc(NC(=S)N2CCCC(O)C2)cc1` (centres undefined), which Potency is on record?
**A.** The Potency was inconclusive: 29.1 µM [cytotoxic, single point].

**Q.** Which Potency does the source give for `COc1ccc(N(CC(=O)N2CCN(c3cccc(C)c3C)CC2)S(=O)(=O)c2c(C)noc2C)cc1` here?
**A.** The Potency was inconclusive: 13 µM [cytotoxic, partial curve, poor fit].

**Q.** Which Potency does the source give for `Cc1cc([N+](=O)[O-])ccc1NC1CCCC1` here?
**A.** The Potency was inconclusive: 29.1 µM [cytotoxic, single point].

**Q.** Which Potency does the source give for `CC1=C(C(=O)Nc2ccc(CC(=O)NCc3ccccc3C)cc2)SCCO1` here?
**A.** Its Potency is inconclusive: 29.1 µM [cytotoxic, single point].

**Q.** With `CCOc1cc(N2CCOCC2)c(OCC)cc1NC(=O)COC(=O)CCOc1ccc(C)cc1` as the compound, how does the “activity change, negative = cytotoxic” value read?
**A.** Its value is inactive: 11.7%.

**Q.** With `Fc1ccc(-c2ccc3nccn3c2)cc1Cl` as the compound, how does the “activity change, negative = cytotoxic” value read?
**A.** Its value is inactive: 0%.

**Q.** Which Potency does the source give for `Cc1cc2nnc(SC(C)C)n2c2ccccc12` here?
**A.** Its Potency is inconclusive: 23.1 µM [cytotoxic, partial curve].

**Q.** For `Cc1ccc(CNS(=O)(=O)c2ccc3c(c2)CCN3S(C)(=O)=O)cc1`, which Potency is on record?
**A.** The Potency was inconclusive: 14.6 µM [cytotoxic, partial curve, poor fit].

**Q.** With `COC(=O)c1c(NC(=O)c2nn(C)cc2Cl)sc2c1CCCC2` as the compound, how does the “activity change, negative = cytotoxic” value read?
**A.** Its value is inactive: 4.4%.

**Q.** For `CC1CN(CC(=O)Nc2nc(-c3ccc(Cl)cc3)cs2)CC(C)O1` (centres undefined), which Potency is on record?
**A.** Its Potency is inconclusive: 23.1 µM [cytotoxic, single point].

**Q.** With `Cc1ccc(-c2nc(=Nc3ccccc3)sn2-c2ccccc2)cc1` as the compound, how does the Potency read?
**A.** Its Potency is inconclusive: 23.1 µM [cytotoxic, single point].

**Q.** For `Cc1ccn2c(C(=O)CSc3ccccc3Cl)c(C)nc2c1`, which Potency is on record?
**A.** The Potency was inconclusive: 25.9 µM [cytotoxic, single point].

**Q.** With `Fc1ccccc1-c1nc(N2CCCCC2)c2ccccc2n1` as the compound, how does the Potency read?
**A.** Its Potency is inconclusive: 20.6 µM [cytotoxic, single point].

**Q.** With `Cc1cc(SCC(=O)c2ccccc2)n2nc(C)nc2n1` as the compound, how does the Potency read?
**A.** The Potency was inconclusive: 9.2 µM [cytotoxic, partial curve, poor fit].

**Q.** With `CC(C)(C)c1ccc(S(=O)(=O)N2C=CC(C(F)(F)F)=NCC2)cc1` as the compound, how does the “activity change, negative = cytotoxic” value read?
**A.** Its value is inactive: -4.29%.

**Q.** With `Cc1c(NC(=O)CSc2cccc3cccnc23)c(=O)n(-c2ccccc2)n1C` as the compound, how does the Potency read?
**A.** Its Potency is inconclusive: 29.1 µM [cytotoxic, single point].

**Q.** For `CCOC(=O)C1CCN(CCC(=O)Nc2ccc(Br)c(C)c2)CC1`, which Potency is on record?
**A.** Its Potency is inconclusive: 5.8 µM [rising, full curve].

**Q.** With `CCOc1ccc(NC(=O)CN(C)C(=O)c2cc(-c3cccs3)nn2-c2ccccc2)cc1OCC` as the compound, how does the Potency read?
**A.** Its Potency is inconclusive: 25.9 µM [rising, single point].

**Q.** For `CCCCCCCCN1C(=O)[C@H](CC(=O)NCC23CC4CC(CC(C4)C2)C3)C[C@@]2(C(=O)OCC)CCCC=C12`, which Potency is on record?
**A.** The Potency was active: 16.4 µM.

**Q.** With `Cc1cccc(C(=O)OCC(=O)N2CCCC2=O)c1O` as the compound, how does the “activity change, negative = cytotoxic” value read?
**A.** The value was inactive: 6.09%.

**Q.** With `CC(=O)Nc1ccc(NC2CCCCC2NS(=O)(=O)c2ccc(Cl)cc2)cc1` (centres undefined) as the compound, how does the Potency read?
**A.** Its Potency is inconclusive: 29.1 µM [cytotoxic, single point].

**Q.** With `Cc1ccc(S(=O)(=O)N2CCN(S(=O)(=O)c3ccc4c(c3)OCCCO4)CC2)cc1` as the compound, how does the activity change, negative = cytotoxic read?
**A.** Its activity change, negative = cytotoxic is inconclusive: 11.1%.

**Q.** With `COc1ccc(C(=O)N/N=C/c2ccc(OC)c(COc3ccccc3)c2)cc1` as the compound, how does the Potency read?
**A.** The Potency was inconclusive: 18.4 µM [cytotoxic, partial curve, poor fit].

**Q.** Which Potency does the source give for `CC(C)CCNC(=O)C(=O)Nc1ccc2c(c1)N(S(=O)(=O)c1cccs1)CCC2` here?
**A.** Its Potency is active: 5.8 µM.

**Q.** Which Potency does the source give for `COCC1CCN(C(=O)c2cc(COc3ccc4ncccc4c3)on2)CC1` here?
**A.** Its Potency is inconclusive: 23.1 µM [cytotoxic, partial curve, poor fit].

**Q.** For `Cc1nc(NCCc2ccc(O)cc2)c2nnn(Cc3ccccc3)c2n1`, which Potency is on record?
**A.** The Potency was inconclusive: 29.1 µM [cytotoxic, single point].

**Q.** With `CSCCC(NS(=O)(=O)c1ccc(Cl)cc1)C(=O)OCc1c(Cl)cccc1Cl` (centres undefined) as the compound, how does the Potency read?
**A.** The Potency was inconclusive: 29.1 µM [cytotoxic, single point].

**Q.** For `CCOc1ccccc1C(=O)Nc1ccc2c(c1)N(C)C(=O)c1ccccc1S2`, which Potency is on record?
**A.** Its Potency is inconclusive: 4.61 µM [cytotoxic, full curve, poor fit].

**Q.** For `Cc1ccccc1OCC(=O)N(Cc1nc(-c2ccccc2)no1)C(C)C`, which “activity change, negative = cytotoxic” value is on record?
**A.** Its value is inactive: 0.528%.

**Q.** For `Cc1cc(/C=N/n2cnnc2)c(C)n1-c1ccc(OCc2ccc(Cl)cc2)cc1`, which Potency is on record?
**A.** Its Potency is active: 8.2 µM.

**Q.** For `FC(F)(F)Oc1ccc(NC(=S)Nc2ccccc2N2CCOCC2)cc1`, which Potency is on record?
**A.** The Potency was inconclusive: 20.6 µM [rising, single point].

**Q.** For `COC(=O)[C@H](C(C)C)N(Cc1ccccc1)S(=O)(=O)CCNC1CCCC1`, which “activity change, negative = cytotoxic” value is on record?
**A.** Its value is inactive: 0%.

**Q.** With `Cc1ccc(Oc2nnc(-c3ccc(C)cc3)c3ccccc23)cc1` as the compound, how does the Potency read?
**A.** Its Potency is inconclusive: 29.1 µM [cytotoxic, single point].

**Q.** Which Potency does the source give for `Cc1cc2nc(-c3cccc(Cl)c3)c(Cc3cccc(Cl)c3)n2c(C)c1Br` here?
**A.** The Potency was inconclusive: 32.6 µM [cytotoxic, single point].

**Q.** For `CCOC(=O)COc1ccc(S(=O)(=O)NCc2ccncc2)cc1`, which Potency is on record?
**A.** Its Potency is inconclusive: 10.3 µM [rising, partial curve, poor fit].

**Q.** Which Potency does the source give for `C=CC(C)(C)c1[nH]cnc1/C=C1\NC(=O)C(C(C)C)NC1=O` (centres undefined) here?
**A.** The Potency was active: 5.8 µM.

**Q.** With `COc1ccc(-c2cn3nc(N4CCC(C(=O)Nc5cccc(Cl)c5)CC4)sc3n2)cc1` as the compound, how does the “activity change, negative = cytotoxic” value read?
**A.** The value was inactive: 5.13%.

**Q.** With `CCc1cc2c(SCC(=O)NC3CCCC3)ncnc2s1` as the compound, how does the “activity change, negative = cytotoxic” value read?
**A.** The value was inactive: -1.47%.

**Q.** For `C=CCc1cccc(/C=N/NC(=O)CCC(=O)Nc2ccc(F)cc2)c1O`, which Potency is on record?
**A.** Its Potency is inconclusive: 16.4 µM [cytotoxic, partial curve, poor fit].

**Q.** Which “activity change, negative = cytotoxic” value does the source give for `Cc1ccc(CNC(=O)Cc2coc3cc(C)cc(C)c23)cc1` here?
**A.** The value was inactive: 23.4%.
